PubChem BioAssay AID1259254 – NCATS | 2017
Purpose: 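Gene knock-downs that lead to re-replication, shown by excess G2 DNA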 (primary screen). System: human HCT116 colorectal cancer cells. Reagents: single siRNA against human genes. Duration: 3 days. Read-out: 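Nuclei stained with Hoechst and imaged; cell-cycle phase assigned by DNA content; G2 share scaled per plate, non-targeting siRNA 0%, GMNN siRNA 100%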. Scale: G2 robust z-score and G2 cells, % of GMNN control: higher = more G2 cells, more excess DNA replication; raw share of cells in G2: higher = larger share of cells with G2 DNA content. Hit rule: 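Active siRNAs have a G2 robust z of 5 or more median absolute deviations over the median, which in these data means about 38% or higher of GMNN control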.
This is one part, drawn at random, of about 59,000 deposited reagents. About 1,550 of them (2.6%) count as active. 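G2 share is only a proxy for re-replication; each gene was hit by three separate siRNAs, and active genes were retested.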 The raw values are shown without normalisation. Entries without a mark were called inactive. Reagents against one gene are numbered here. Reagent sequences are not shown. Not stated in the record: the amount of reagent.

gene | reagent | G2 robust z-score | G2 cells, % of GMNN control | raw share of cells in G2 (%)
RASAL1 (RAS protein activator like 1) | 1 | -1.29 | -6.1 | 3.12
RASAL1 (RAS protein activator like 1) | 2 | -0.545 | -0.868 | 4.14
RASAL1 (RAS protein activator like 1) | 3 | -0.913 | -3.46 | 3.47
MRPL19 (mitochondrial ribosomal protein L19) | 1 | -0.309 | 0.791 | 5.69
MRPL19 (mitochondrial ribosomal protein L19) | 2 | 0.00706 | 3.02 | 5.2
MRPL19 (mitochondrial ribosomal protein L19) | 3 | -0.485 | -0.447 | 3.24
MALSU1 (mitochondrial assembly of ribosomal large subunit 1) | 1 | -0.918 | -3.49 | 2.69
MALSU1 (mitochondrial assembly of ribosomal large subunit 1) | 2 | -1.05 | -4.41 | 2.01
MALSU1 (mitochondrial assembly of ribosomal large subunit 1) | 3 | -0.901 | -3.37 | 0.833
HUNK (hormonally up-regulated Neu-associated kinase) | 1 | -0.976 | -3.9 | 4.38
HUNK (hormonally up-regulated Neu-associated kinase) | 2 | -1.2 | -5.48 | 3.2
HUNK (hormonally up-regulated Neu-associated kinase) | 3 | -0.498 | -0.537 | 3.51
KHSRP (KH-type splicing regulatory protein) | 1 | 1.39 | 12.7 | 9.26
KHSRP (KH-type splicing regulatory protein) | 2 | -1.14 | -5.03 | 3.5
KHSRP (KH-type splicing regulatory protein) | 3 | 0.151 | 4.03 | 6.37
PNCK (pregnancy up-regulated nonubiquitous CaM kinase) | 1 | 4.28 | 33.1 | 15.9
PNCK (pregnancy up-regulated nonubiquitous CaM kinase) | 2 | -1.61 | -8.35 | 2.16
PNCK (pregnancy up-regulated nonubiquitous CaM kinase) | 3 | -0.106 | 2.22 | 4.39
LRRC52 (leucine rich repeat containing 52) | 1 | -0.0977 | 2.28 | 6.89
LRRC52 (leucine rich repeat containing 52) | 2 | -0.589 | -1.18 | 4.5
LRRC52 (leucine rich repeat containing 52) | 3 | -0.289 | 0.938 | 4.63
AARD (alanine and arginine rich domain containing protein) | 1 | -0.936 | -3.62 | 2.22
AARD (alanine and arginine rich domain containing protein) | 2 | 1.06 | 10.4 | 7.37
AARD (alanine and arginine rich domain containing protein) | 3 | 3.89 | 30.3 | 13.4
OR8A1 (olfactory receptor family 8 subfamily A member 1) | 1 | 0.209 | 4.44 | 5.29
OR8A1 (olfactory receptor family 8 subfamily A member 1) | 2 | -1.15 | -5.14 | 1.17
OR8A1 (olfactory receptor family 8 subfamily A member 1) | 3 | -0.0407 | 2.68 | 5.78
TFB2M (transcription factor B2, mitochondrial) | 1 | 0.43 | 5.99 | 8.13
TFB2M (transcription factor B2, mitochondrial) | 2 | -0.595 | -1.22 | 3.92
TFB2M (transcription factor B2, mitochondrial) | 3 | 1.18 | 11.3 | 8.31
ZNF33A (zinc finger protein 33A) | 1 | -0.657 | -1.66 | 2.98
ZNF33A (zinc finger protein 33A) | 2 | 0.276 | 4.91 | 8.17
ZNF33A (zinc finger protein 33A) | 3 | -0.223 | 1.4 | 3.92
CD47 (CD47 molecule) | 1 | -0.0871 | 2.35 | 5.8
CD47 (CD47 molecule) | 2 | 0.796 | 8.57 | 8.12
CD47 (CD47 molecule) | 3 | 0.702 | 7.91 | 6.82
FER1L6 (fer-1 like family member 6) | 1 | 0.0573 | 3.37 | 4.79
FER1L6 (fer-1 like family member 6) | 2 | -0.198 | 1.57 | 3.75
FER1L6 (fer-1 like family member 6) | 3 | -0.526 | -0.733 | 2.56
OR2U1P (olfactory receptor family 2 subfamily U member 1 pseudogene) | 1 | 4.52 | 34.8 | 17
OR2U1P (olfactory receptor family 2 subfamily U member 1 pseudogene) | 2 | 0.306 | 5.12 | 5.36
OR2U1P (olfactory receptor family 2 subfamily U member 1 pseudogene) | 3 | -0.623 | -1.42 | 2.64
ERCC8 (ERCC excision repair 8, CSA ubiquitin ligase complex subunit) | 1 | 2.81 | 22.7 | 16
ERCC8 (ERCC excision repair 8, CSA ubiquitin ligase complex subunit) | 2 | -0.346 | 0.531 | 4.28
ERCC8 (ERCC excision repair 8, CSA ubiquitin ligase complex subunit) | 3 | 0.0359 | 3.22 | 4.78
ACSBG1 (acyl-CoA synthetase bubblegum family member 1) | 1 | 2.63 | 21.5 | 15
ACSBG1 (acyl-CoA synthetase bubblegum family member 1) | 2 | 2.73 | 22.2 | 11.6
ACSBG1 (acyl-CoA synthetase bubblegum family member 1) | 3 | -0.0353 | 2.72 | 4.8
RNASE8 (ribonuclease A family member 8) | 1 | 1.23 | 11.6 | 8.88
RNASE8 (ribonuclease A family member 8) | 2 | -0.967 | -3.83 | 3.32
RNASE8 (ribonuclease A family member 8) | 3 | -0.86 | -3.09 | 4.24
LOC388282 | 1 | -0.634 | -1.49 | 3.26
LOC388282 | 2 | 9.29 (active) | 68.3 | 33.1
LOC388282 | 3 | 1.01 | 10 | 8.94
ART4 (ADP-ribosyltransferase 4 (inactive) (Dombrock blood group)) | 1 | 0.928 | 9.5 | 7.95
ART4 (ADP-ribosyltransferase 4 (inactive) (Dombrock blood group)) | 2 | -0.598 | -1.24 | 4.63
ART4 (ADP-ribosyltransferase 4 (inactive) (Dombrock blood group)) | 3 | 5.03 (active) | 38.3 | 18.3
CIMIP6 (ciliary microtubule inner protein 6) | 1 | 0.79 | 8.52 | 5.67
CIMIP6 (ciliary microtubule inner protein 6) | 2 | 3.19 | 25.4 | 13.8
CIMIP6 (ciliary microtubule inner protein 6) | 3 | 1.95 | 16.7 | 8.4
TMED3 (transmembrane p24 trafficking protein 3) | 1 | 6.08 (active) | 45.7 | 21.6
TMED3 (transmembrane p24 trafficking protein 3) | 2 | -0.67 | -1.75 | 3.18
TMED3 (transmembrane p24 trafficking protein 3) | 3 | -0.115 | 2.16 | 4.05
TUBB3 (tubulin beta 3 class III) | 1 | 3.4 | 26.9 | 17.1
TUBB3 (tubulin beta 3 class III) | 2 | 1.75 | 15.3 | 12.3
TUBB3 (tubulin beta 3 class III) | 3 | -0.698 | -1.94 | 3.21
ARPC5L (actin related protein 2/3 complex subunit 5 like) | 1 | 0.627 | 7.38 | 6.87
ARPC5L (actin related protein 2/3 complex subunit 5 like) | 2 | -0.645 | -1.57 | 4.21
ARPC5L (actin related protein 2/3 complex subunit 5 like) | 3 | 1.15 | 11 | 10

Just “raw share of cells in G2 (%)” (7 entries from above):
KHSRP (KH-type splicing regulatory protein) #2: 3.5
KHSRP (KH-type splicing regulatory protein) #3: 6.37
PNCK (pregnancy up-regulated nonubiquitous CaM kinase) #1: 15.9
PNCK (pregnancy up-regulated nonubiquitous CaM kinase) #2: 2.16
PNCK (pregnancy up-regulated nonubiquitous CaM kinase) #3: 4.39
LRRC52 (leucine rich repeat containing 52) #1: 6.89
LRRC52 (leucine rich repeat containing 52) #2: 4.5
